Measured values published in paper PMC4377584, “Sestrin2 inhibits mTORC1 through modulation of GATOR complexes” (Scientific Reports, 2015).
Like-named read-outs stand apart in the source and are kept apart here. These are yes or no findings as the source states them, for the method shown. In cells and extracts the contact can be indirect. These calls come from enrichment with a bait or labelling near it, and not all partners need be listed. For some assays here: A no says only that the protein was not detected with the bait. Sequences can lack the tags named with a protein.

Chains of the proteins cited; added tags and fusions are not shown.
UniProt O75140: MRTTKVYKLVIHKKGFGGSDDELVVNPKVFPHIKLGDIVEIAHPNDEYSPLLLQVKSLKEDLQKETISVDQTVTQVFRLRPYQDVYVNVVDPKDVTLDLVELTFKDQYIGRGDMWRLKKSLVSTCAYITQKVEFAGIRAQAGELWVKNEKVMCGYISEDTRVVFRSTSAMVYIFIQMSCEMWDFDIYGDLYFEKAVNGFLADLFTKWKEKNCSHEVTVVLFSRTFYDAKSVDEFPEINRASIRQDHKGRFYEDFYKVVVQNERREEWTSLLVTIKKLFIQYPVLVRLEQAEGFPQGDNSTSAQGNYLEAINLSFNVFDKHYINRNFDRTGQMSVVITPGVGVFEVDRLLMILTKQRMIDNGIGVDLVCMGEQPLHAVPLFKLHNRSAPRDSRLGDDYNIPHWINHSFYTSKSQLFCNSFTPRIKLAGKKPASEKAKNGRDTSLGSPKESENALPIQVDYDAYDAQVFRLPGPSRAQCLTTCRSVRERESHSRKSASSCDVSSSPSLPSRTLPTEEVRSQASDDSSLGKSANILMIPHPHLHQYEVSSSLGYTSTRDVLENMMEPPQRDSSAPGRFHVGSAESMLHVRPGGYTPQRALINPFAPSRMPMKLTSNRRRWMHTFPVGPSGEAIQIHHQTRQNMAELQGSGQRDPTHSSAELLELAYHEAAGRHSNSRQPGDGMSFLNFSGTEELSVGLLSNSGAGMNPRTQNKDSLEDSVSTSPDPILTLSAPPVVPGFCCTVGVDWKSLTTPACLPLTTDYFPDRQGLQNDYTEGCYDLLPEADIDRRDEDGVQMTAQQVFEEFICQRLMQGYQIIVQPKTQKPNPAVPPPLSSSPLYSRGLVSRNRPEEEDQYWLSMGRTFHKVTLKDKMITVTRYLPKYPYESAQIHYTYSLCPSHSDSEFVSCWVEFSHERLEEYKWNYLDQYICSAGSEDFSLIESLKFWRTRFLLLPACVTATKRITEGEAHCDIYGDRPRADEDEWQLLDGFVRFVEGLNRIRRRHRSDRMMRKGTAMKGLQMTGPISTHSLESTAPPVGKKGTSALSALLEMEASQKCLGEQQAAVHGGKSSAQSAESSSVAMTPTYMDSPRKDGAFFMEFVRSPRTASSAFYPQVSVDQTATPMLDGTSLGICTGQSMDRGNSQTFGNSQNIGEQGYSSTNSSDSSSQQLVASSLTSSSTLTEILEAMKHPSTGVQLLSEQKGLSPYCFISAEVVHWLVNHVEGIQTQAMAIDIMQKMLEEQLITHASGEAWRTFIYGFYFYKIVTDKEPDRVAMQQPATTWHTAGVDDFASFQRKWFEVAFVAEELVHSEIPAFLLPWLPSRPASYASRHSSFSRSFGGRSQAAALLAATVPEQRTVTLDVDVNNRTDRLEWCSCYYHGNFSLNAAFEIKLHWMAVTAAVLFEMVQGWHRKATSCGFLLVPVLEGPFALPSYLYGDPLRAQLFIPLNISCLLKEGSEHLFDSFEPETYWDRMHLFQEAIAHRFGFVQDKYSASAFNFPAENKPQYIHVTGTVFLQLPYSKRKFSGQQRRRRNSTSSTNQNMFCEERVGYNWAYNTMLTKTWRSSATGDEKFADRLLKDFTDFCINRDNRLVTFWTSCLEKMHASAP

T1: Flag-SBP-Sestrin2 (UniProt P58004)
T1 sequence: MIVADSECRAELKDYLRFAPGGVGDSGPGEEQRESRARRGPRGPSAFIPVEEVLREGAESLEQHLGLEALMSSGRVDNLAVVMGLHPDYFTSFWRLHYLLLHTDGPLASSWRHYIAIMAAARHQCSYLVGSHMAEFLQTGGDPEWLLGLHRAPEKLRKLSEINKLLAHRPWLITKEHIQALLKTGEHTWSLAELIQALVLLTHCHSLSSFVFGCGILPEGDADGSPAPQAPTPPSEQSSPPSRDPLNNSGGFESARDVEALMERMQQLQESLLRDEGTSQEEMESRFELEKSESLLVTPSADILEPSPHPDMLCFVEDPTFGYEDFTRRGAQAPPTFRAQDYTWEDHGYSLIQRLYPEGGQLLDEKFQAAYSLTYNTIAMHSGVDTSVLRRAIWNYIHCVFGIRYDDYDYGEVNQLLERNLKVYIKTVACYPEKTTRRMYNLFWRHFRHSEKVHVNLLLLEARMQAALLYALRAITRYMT

T2: Flag-SBP-Sestrin2, P58004
T2 chain: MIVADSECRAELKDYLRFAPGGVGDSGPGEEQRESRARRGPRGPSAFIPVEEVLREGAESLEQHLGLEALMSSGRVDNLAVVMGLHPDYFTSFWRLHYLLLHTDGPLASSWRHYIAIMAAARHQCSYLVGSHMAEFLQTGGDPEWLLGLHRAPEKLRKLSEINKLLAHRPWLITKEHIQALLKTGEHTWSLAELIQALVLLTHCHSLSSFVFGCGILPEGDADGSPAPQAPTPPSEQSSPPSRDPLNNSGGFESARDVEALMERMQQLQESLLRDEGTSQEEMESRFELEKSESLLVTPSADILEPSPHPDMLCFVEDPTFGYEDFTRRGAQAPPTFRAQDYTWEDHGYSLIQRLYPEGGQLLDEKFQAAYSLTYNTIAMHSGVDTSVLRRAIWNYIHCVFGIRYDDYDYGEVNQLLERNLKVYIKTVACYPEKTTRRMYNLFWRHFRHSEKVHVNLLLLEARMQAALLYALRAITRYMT


Legend:
Test in all cases: affinity purification with mass spectrometry; tandem affinity purification (Flag antibody resin, 3X-Flag peptide elution; streptavidin resin, biotin elution) of Flag-SBP-Sestrin2 from stably infected MCF10A cells lysed with 0.3% CHAPS; LC/ESI MS/MS; proteins also found with vector control taken as false-positive
Flag-SBP-Sestrin2 [1] = target: T1, Flag-SBP-Sestrin2
Flag-SBP-Sestrin2 [2] = target: T1, Flag-SBP-Sestrin2; remark: listed apart in the source
[3] = target: T2, Flag-SBP-Sestrin2, P58004; settings: remark: other sources report otherwise

| binding (Flag-SBP-Sestrin2 [2]) | binding [3] | Molecule | further results |
| --- | --- | --- | --- |
|  |  | DEPDC5 (endogenous, MCF10A) (from UniProt O75140 1-1603) | binding (Flag-SBP-Sestrin2 [1]): no binding |
| binds |  | PPM1A (endogenous, MCF10A) (protein, UniProt P35813 1-382) MGAFLDKPKMEKHNAQGQGNGLRYGLSSMQGWRVEMEDAHTAVIGLPSGLESWSFFAVYDGHAGSQVAKYCCEHLLDHITNNQDFKGSAGAPSVENVKNGIRTGFLEIDEHMRVMSEKKHGADRSGSTAVGVLISPQHTYFINCGDSRGLLCRNRKVHFFTQDHKPSNPLEKERIQNAGGSVMIQRVNGSLAVSRALGDFDYKCVHGKGPTEQLVSPEPEVHDIERSEEDDQFIILACDGIWDVMGNEELCDFVRSRLEVTDDLEKVCNEVVDTCLYKGSRDNMSVILICFPNAPKVSPEAVKKEAELDKYLECRVEEIIKKQGEGVPDLVHVMRTLASENIPSLPPGGELASKRNVIEAVYNRLNPYKNDDTDSTSTDDMW |  |
|  | no binding | NPRL2 (endogenous, MCF10A), Q8WTW4 1-380 (protein) MGSGCRIECIFFSEFHPTLGPKITYQVPEDFISRELFDTVQVYIITKPELQNKLITVTAMEKKLIGCPVCIEHKKYSRNALLFNLGFVCDAQAKTCALEPIVKKLAGYLTTLELESSFVSMEESKQKLVPIMTILLEELNASGRCTLPIDESNTIHLKVIEQRPDPPVAQEYDVPVFTKDKEDFFNSQWDLTTQQILPYIDGFRHIQKISAEADVELNLVRIAIQNLLYYGVVTLVSILQYSNVYCPTPKVQDLVDDKSLQEACLSYVTKQGHKRASLRDVFQLYCSLSPGTTVRDLIGRHPQQLQHVDERKLIQFGLMKNLIRRLQKYPVRVTREEQSHPARLYTGCHSYDEICCKTGMSYHELDERLENDPNIIICWK |  |
| binds |  | WDR59 (endogenous, MCF10A) (protein, UniProt Q6PJI9 1-974) MAARWSSENVVVEFRDSQATAMSVDCLGQHAVLSGRRFLYIVNLDAPFEGHRKISRQSKWDIGAVQWNPHDSFAHYFAASSNQRVDLYKWKDGSGEVGTTLQGHTRVISDLDWAVFEPDLLVTSSVDTYIYIWDIKDTRKPTVALSAVAGASQVKWNKKNANCLATSHDGDVRIWDKRKPSTAVEYLAAHLSKIHGLDWHPDSEHILATSSQDNSVKFWDYRQPRKYLNILPCQVPVWKARYTPFSNGLVTVMVPQLRRENSLLLWNVFDLNTPVHTFVGHDDVVLEFQWRKQKEGSKDYQLVTWSRDQTLRMWRVDSQMQRLCANDILDGVDEFIESISLLPEPEKTLHTEDTDHQHTASHGEEEALKEDPPRNLLEERKSDQLGLPQTLQQEFSLINVQIRNVNVEMDAADRSCTVSVHCSNHRVKMLVKFPAQYPNNAAPSFQFINPTTITSTMKAKLLKILKDTALQKVKRGQSCLEPCLRQLVSCLESFVNQEDSASSNPFALPNSVTPPLPTFARVTTAYGSYQDANIPFPRTSGARFCGAGYLVYFTRPMTMHRAVSPTEPTPRSLSALSAYHTGLIAPMKIRTEAPGNLRLYSGSPTRSEKEQVSISSFYYKERKSRRWKSKREGSDSGNRQIKAAGKVIIQDIACLLPVHKSLGELYILNVNDIQETCQKNAASALLVGRKDLVQVWSLATVATDLCLGPKSDPDLETPWARHPFGRQLLESLLAHYCRLRDVQTLAMLCSVFEAQSRPQGLPNPFGPFPNRSSNLVVSHSRYPSFTSSGSCSSMSDPGLNTGGWNIAGREAEHLSSPWGESSPEELRFGSLTYSDPRERERDQHDKNKRLLDPANTQQFDDFKKCYGEILYRWGLREKRAEVLKFVSCPPDPHKGIEFGVYCSHCRSEVRGTQCAICKGFTFQCAICHVAVRGSSNFCLTCGHGGHTSHMMEWFRTQEVCPTGCGCHCLLESTF |  |
|  | no binding | NPRL3 (endogenous, MCF10A), Q12980 1-569 (protein) MRDNTSPISVILVSSGSRGNKLLFRYPFQRSQEHPASQTSKPRSRYAASNTGDHADEQDGDSRFSDVILATILATKSEMCGQKFELKIDNVRFVGHPTLLQHALGQISKTDPSPKREAPTMILFNVVFALRANADPSVINCLHNLSRRIATVLQHEERRCQYLTREAKLILALQDEVSAMADGNEGPQSPFHHILPKCKLARDLKEAYDSLCTSGVVRLHINSWLEVSFCLPHKIHYAASSLIPPEAIERSLKAIRPYHALLLLSDEKSLLGELPIDCSPALVRVIKTTSAVKNLQQLAQDADLALLQVFQLAAHLVYWGKAIIIYPLCENNVYMLSPNASVCLYSPLAEQFSHQFPSHDLPSVLAKFSLPVSLSEFRNPLAPAVQETQLIQMVVWMLQRRLLIQLHTYVCLMASPSEEEPRPREDDVPFTARVGGRSLSTPNALSFGSPTSSDDMTLTSPSMDNSSAELLPSGDSPLNQRMTENLLASLSEHERAAILSVPAAQNPEDLRMFARLLHYFRGRHHLEEIMYNENTRRSQLLMLFDKFRSVLVVTTHEDPVIAVFQALLP |  |
